Data taken from ChEMBL document CHEMBL4513149, “CO-ADD screening of MMV (CH) - MMV compounds” (2021).
This is one part of the list. Measured potencies and affinities stand elsewhere.

System: Pseudomonas aeruginosa
Details: Concentration 20 uM; ASSAY_TEST Inhibition of Bacterial Growth; detection method Absorption (OD600); MEDIA CAMHB; plate type 384well; NBS; CORNING #3640; time 18 hr

SMILES | Inhibition [%]
Cc1cc(O)nc(-n2nc(C)cc2C)n1 | 22.1
Cc1nc(-c2cccc(NCc3ccccc3)c2)[nH]c1C | 19.16
CC(C)=CCC/C(C)=C\CNCCNC1C2CC3CC(C2)CC1C3 (configuration not stated) | 27.33
Cl.c1ccc(C[C@@H]2CN(c3nccc(Oc4ccc(-n5ccnc5)cc4)n3)CCN2)cc1 | 9.03
N#Cc1ccc(-c2ccc(OCC(N)=O)cc2)cc1 | 3.34
CC(C)(C)c1ccc(N[C@@H]2CCCC[C@H]2NC(=O)c2ccco2)cc1 | 0.79
CCOC(=O)c1c(NC(=O)c2c(F)c(F)c(F)c(F)c2F)sc(C(N)=O)c1C | 19.78
Clc1ccc(CN2CCN(C3=NCCN3)CC2)cc1Cl | 6.25
NC(=O)c1cc(-c2ccsc2)ccc1OCCOc1ccccc1 | 15.94
COc1ccc(C2CC(c3cccs3)=NN2C(=O)c2ccco2)cc1OC (configuration not stated) | 16.11
CNC(=O)C1Cc2ccccc2N1C(=O)Cc1ccc(F)cc1 (configuration not stated) | 4.48
Nc1nccc2ccc(-c3ccc4nccn4c3)cc12 | 30.48
CC(C)(C)n1nc(-c2ccccc2)c2c(N)ncnc21 | 1.86
CS(=O)(=O)N1CCC(CCn2nc(Cc3cccc4ccccc34)c3c(N)ncnc32)CC1 | 1.77
O=C(CN1CCOCC1)Nc1ccc2ncnc(Nc3ccc(OCc4cccc(F)c4)c(Cl)c3)c2c1 | 8.7
COC(=O)C1=C(C)NC(C)=C(C(=O)OC(C)C)C1c1cccc2nonc12 (configuration not stated) [ISRADIPINE] | 2.23
CC(=O)N(CCN(C(=O)c1ccc(F)cc1)c1ccccc1)c1ccccc1 | 7.38
CC(C)(C)OC(=O)N1CCN(c2cc(-c3ccc(Oc4ccccc4)cc3)n[nH]2)CC1 | 20.5
COc1ccc(-c2nn(C(C)C)c3ncnc(N)c23)cc1OC | 9.3
Cc1nn(C)cc1C(C)Nc1nncc(-c2ccc(C(F)(F)F)cc2)n1 (configuration not stated) | -4.15
CC(C)(C)C(=O)N(CCCCCCN1C[C@H](O)[C@@H](O)[C@H](O)[C@H]1CO)C1CCCCCC1 | -1.24

A second format for 7 compounds above:

| SMILES | Inhibition [%] |
| --- | --- |
| CNC(=O)C1Cc2ccccc2N1C(=O)Cc1ccc(F)cc1 (configuration not stated) | 4.48 |
| Nc1nccc2ccc(-c3ccc4nccn4c3)cc12 | 30.48 |
| CC(C)(C)n1nc(-c2ccccc2)c2c(N)ncnc21 | 1.86 |
| CS(=O)(=O)N1CCC(CCn2nc(Cc3cccc4ccccc34)c3c(N)ncnc32)CC1 | 1.77 |
| O=C(CN1CCOCC1)Nc1ccc2ncnc(Nc3ccc(OCc4cccc(F)c4)c(Cl)c3)c2c1 | 8.7 |
| COC(=O)C1=C(C)NC(C)=C(C(=O)OC(C)C)C1c1cccc2nonc12 (configuration not stated) [ISRADIPINE] | 2.23 |
| CC(=O)N(CCN(C(=O)c1ccc(F)cc1)c1ccccc1)c1ccccc1 | 7.38 |

Further entries follow.

SMILES | Inhibition [%]
O=C(C1CCN(c2cc(-n3cccc3)ncn2)CC1)N1CCc2ccccc2C1 | 5.31
COc1cccn2c(C(=O)N3CCCCC3)c(C(F)(F)F)nc12 | 8.62
CCOc1ccc2cc(-c3nn(CC4CCN(C)CC4)c4ncnc(N)c34)ccc2c1.Cl | 9.74
COc1ccccc1C(C)NCC(=O)Nc1cc(C(F)(F)F)ccc1Cl (configuration not stated) | 9.87
c1ccc(Oc2ccc(-c3cc(N4CCOCC4)[nH]n3)cc2)cc1 | 7.11
CCOC(=O)c1noc(N)c1-c1ccccc1 | 18.52
Nc1cccnc1Nc1ccc(Cl)cc1 | -2.6
COc1ccc(Oc2ccc([C@@H](C)N(C)c3ncc4c(N)nc(N)nc4n3)cc2)cc1 | 20.64
Cc1cccc(Cn2ccc(NC(=O)c3ccc4c(c3)OCO4)n2)c1 | 12.98
COc1ccc(C(=N)N)cc1-c1cn(-c2ccc(C(=N)N)cc2)nn1.Cl.Cl | 5.57
Nc1ncc(-c2cn[nH]c2)cc1-c1nc2cc(Cl)cnc2[nH]1 | 0.43
COc1ccc(Nc2ccccc2NC(=O)c2ccc(O)nc2)cc1 | -7.97
O=C(NCc1nnc2n1CCCCC2)c1ccc(-c2ccc(F)cc2)o1 | 9.27
COc1cc(CN2CCC3(C=Cc4ccccc43)CC2)cc2c1OCO2 | -4.35
CC(C)n1nc(-c2cc3c(Cl)cccc3[nH]2)c2c(N)ncnc21 | 1.75
COc1cccc2c(C)nc(N=C(N)N)nc12.O=C(O)C(F)(F)F.O=C(O)C(F)(F)F | 13.82
CC(C)C(C(=O)Nc1ccc(S(=O)(=O)N(C)C)cc1)c1ccc(Cl)cc1 (configuration not stated) | 11.04
Nc1ncnc2c1c(-c1cnc3ccccc3c1)nn2CC1CCNCC1 | 6.19
O=C(NC1CCN(c2ccnc3ccccc23)C1)c1cccc(C(F)(F)F)c1 (configuration not stated) | 18.51
CCCCOC(=O)Nc1cc2nc(C3CCCCC3)[nH]c2cc1N1CCCC1 | 1.19
O=C(c1ccc(F)cc1)N(CCNc1ccccc1)c1ccccc1 | 12.58

SMILES | Inhibition [%]
c1ccc2c(c1)CN(CC1CC1)CC1(CCN(Cc3c[nH]c4cnccc34)CC1)O2 | 4.91
CCS(=O)(=O)N(Cc1ccco1)Cc1cc2ccc(C)cc2nc1O | 4.65
OCc1ccc(-c2cncc(Nc3cccc(Cl)c3)c2)cc1 | 17.87
CC(=O)Nc1ccc(NC(=O)c2cc(-c3cc(Cl)ccc3O)n[nH]2)cc1 | 7.36
COc1ccc(-c2cc(NC(=O)c3ccc(F)cc3Cl)ccc2OC)cc1 | 12.31
COc1ccc2nc(C)cc(OCC(=O)Nc3ccccc3OC)c2c1 | 16.24
O=C(C(Cc1c[nH]c2ccccc12)NS(=O)(=O)c1ccc(Cl)cc1)N1CCCCC1 (configuration not stated) | 2.9
N#CCN(CCCCN1CCN(c2ccc(F)cc2)CC1)C(=O)OCc1ccccc1 | 16.37
CCC(Sc1nc2ccccc2o1)C(=O)Nc1nccs1 (configuration not stated) | 14.44
N#Cc1ccc(-c2cnc(N)c(-c3ccc(C(N)=O)cc3)n2)cc1 | 12.35
CC1CS(=O)(=O)CCN1/N=C/c1ccc([N+](=O)[O-])o1 (configuration not stated) [NIFURTIMOX] | 14.26
Cc1cc2ccccc2n1CC(=O)N1CC(C(=O)N2CCCCC2)Oc2ccccc21 (configuration not stated) | 14.62
O=C(Nc1nc(-c2ccccn2)cs1)c1cncn1-c1ccccc1 | 8.38
COc1nc2ccc(Br)cc2cc1[C@@H](c1ccccc1)[C@@](O)(CCN(C)C)c1cccc2ccccc12.O=C(O)C(F)(F)F | 29.83
O=C(OCc1ccccc1)N1CCC(c2cc(-c3ccncc3)c(-c3ccc(F)cc3)[nH]2)CC1 | -0.02
Cc1noc(C)c1COc1cccc(C(=O)N=c2[nH]cccc2C)c1 | 14.41
COc1cccc(OCC(=O)c2ccc(Br)cc2)c1 | -5.97
O=C(Nc1nnc(S)s1)c1cc(Br)ccc1Cl | 5.03
O=C(Nc1ccc(F)c(-c2nc3cc(-c4ccccc4)cnc3[nH]2)c1)N1CCCC1 | 6.46
OC[C@H]1O[C@@H](n2c3ccc(Cl)cc3c3c(-c4cc5ccccc5o4)ncnc32)C(O)[C@H]1O (some centres not stated) | 6.11
CC(C)c1ncc(-c2ccncc2)c([C@H]2CC[C@H](CNC(=O)c3cccnc3)CC2)n1 | 18.15

SMILES | Inhibition [%]
O=C(Nc1ccccc1-c1nc2c(C(=O)O)cccc2o1)c1ccccc1 | -1.97
Cc1ccc(S(=O)(=O)n2cc(-c3ccnc(N)c3)c3cc(Br)cnc32)cc1 | 0.76
CC(C)/N=c1\cc2n(-c3ccc(Cl)cc3)c3ccccc3nc-2cc1Nc1ccc(Cl)cc1 [CLOFAZIMINE] | 6.99
c1cc(C2=NCCN2)cc(-c2cc(-c3ccc(C4=NCCN4)cc3)no2)c1 | 15.63
CC(C)(C)OC(=O)N1CCN(c2nccc(-c3ccc(-c4ccc(Cl)cc4)s3)n2)CC1 | 6.83
Cc1ccc(-c2nc(CN(Cc3ccccn3)C(C)C)cs2)o1 | 21.2
Nc1ccc(C(=O)Nc2ccc(-c3nc4ccccc4o3)cc2)cc1 | 8.27
CCCCS(=O)(=O)Nc1ccc2cnn(C)c2c1 | 12.08
CCN(CC)CCCN1CCN(C(=O)c2cccc(-c3noc(C(F)(F)F)n3)c2)CC1 | -2.85
O=C(NCCc1c[nH]c2ccccc12)c1cc2ccccc2oc1=O | 10.24
CC1CCCN(C(=O)C(C)Nc2cc(Cl)ccc2N2CCOCC2)C1 (configuration not stated) | 13.93
COc1ccc(-c2cnc3cnc(-c4cccc(OC(C)C)c4)cn23)cc1 | 7.28
Cc1cc(Nc2ccc(C(F)(F)F)cc2)n2ccnc2n1 | 17.38
COc1ccc(CN2CCOc3ccc(C(C)(O)CN(C)C)cc3C2)cc1C (configuration not stated) | 10.75
CCCn1c(CNc2ccccc2O)nc2ccccc21 | 12.01
Cc1cc(C)nc(-n2nc(C)cc2Nc2ccccc2)n1 | 12.99
Nc1ncnc2[nH]nc(Cc3cccc4ccccc34)c12 | 14.6
CN1CCCC1CCO[C@](C)(c1ccccc1)c1ccc(Cl)cc1.O=C(O)/C=C/C(=O)O (some centres not stated) | 22.35
Cc1ccc(-c2cc(C(=O)Nc3cccnc3)c3cc(Br)ccc3n2)cc1 | 5.94
